Laboratory results taken from PubChem BioAssay AID1347426 (Functional Genomics Laboratory (NCATS/FGL), 2020).
Out of some 31,000 sequences screened, about 1,400 (4.5%) were called active.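 How the source made its calls: active means median seed-adjusted z-score above 1 or below -1; inactive means the rest.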 The list shows a part of the results.

Assay: Novel Modifiers of Survival Motor Neuron (SMN) Protein: Gene Identification via Genome-wide siRNA Screen;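 further: luminescence tracks full-length SMN protein made from the SMN2 reporter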
Details: HEK293T SMN2-luciferase reporter, siRNA knockdown, 72 h; actives lie on both sides
Method in brief: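 Steps: spot 1 pmol siRNA, add Lipofectamine RNAiMax in serum-free DMEM, seed HEK293T SMN2–luciferase reporter cells; incubate 72 h at 37 °C; add ONE-Glo; normalize luminescence to control siRNA, log10, MAD. Candidates: |MAD| > 1.0.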

Sequence	median seed-adjusted z-score
CCACUAUUUUGAUUCUCUUTT against GPR63	inactive: -0.0154
GGAUCUUACUGGUGCAAAATT against CD300E	inactive: 0.337
CCAGAUUGUGGACUUCCUATT against MATN4	inactive: -0.262
CCGAAUGAGUUUGAACAUATT against ZNF48	inactive: -0.116
GUGCUUUGACUGUCAAGAATT against ZNF333	inactive: 0.418
AGCACGAACUGUCAUCUUUTT against PGLS	inactive: 0.188
GGGUGGAGGUGUACUAUGATT against LOXL2	inactive: 0.177
CAAACUUCAGAGGAGUGUATT against ZNF396	inactive: -0.247
GCAGAACUCUCUAAAGGAUTT against VAV1	inactive: 0.215
GCAAUGCACCGCUCACUAATT against SMARCC2	inactive: 0.0684
GAGUAACCAGUAUCAAGUUTT against DBF4	inactive: -0.319
UCCUUUACAUCUACAAGGATT against UNQ2541	inactive: -0.954
AAAUCCCUUUGACACCUUUTT against DNAJB1	inactive: 0.466
GGGCCGUCAUGAUAGAUCUTT against TUBA8	inactive: -0.0453
GGCUUUUGCCCUAUCCAUUTT against WNK4	inactive: 0.385
GCAUAGGAUUCAUUGAGUUTT against NME1	inactive: 0.188
GGCUAUAAUUGGAGCACGATT against PVR	inactive: -0.324
GGUGUUAUCUGAAAAGGUUTT against MAGT1	inactive: -0.0855
GUACUUACCUUGUGAGGCATT against VAV3	inactive: 0
CCUGACUUCUGCAAACCUATT against CHRFAM7A	inactive: 0.115
CCUCCUUCCUGUACACGGATT against PHYHD1	inactive: -0.37
CGAUUCAAAAGAUCUGAUATT against MBTD1	inactive: 0.0649

Sequence	median seed-adjusted z-score
GCAUUGCAGAGAACCGACATT against METTL7A	inactive: 0.278
GCACCUAGAUUGGAUAGAATT against TRIP12	inactive: 0.16
GGAUAGUAUUGGUUGCUAUTT against ADAM22	inactive: 0.292
GGUACGAAUGAAUACCUUUTT against PTPN4	inactive: -0.447
CUUGCUAUUUUAAUCAACATT against KCNMB4	inactive: 0
CAGUCUCAUUUUCCCAUGATT against PCBP2	inactive: 0
CUUUCUGUCUAAAUGCGAATT against SERPINB12	inactive: -0.525
GCAUGUCUGUCAACGGAUUTT against SV2C	inactive: 0.183
GAAGAUCGGAUGUCCGUAATT against DPYS	inactive: -0.288
GGCUGAAAGAUAUGCUGAATT against ROM1	inactive: 0.41
GCACCAUUGCCUACGAAAATT against LGALS3BP	inactive: 0.187
CCUCCUCAUCUGCAACUCATT against MED25	inactive: -0.589
GCACAUGCUUAAAAACGCATT against RPL17	inactive: -0.13
CCAAUCUGCAGCGAGCUUATT against STUB1	inactive: 0.202
GCACUGUUCGGUAUCCUAUTT against NCAN	inactive: -0.391
UAACAAAUCCUAUUAGAUUTT against CTBP2	inactive: -0.241
CUUCCACUUUCAUAAGGUUTT against SELO	inactive: 0.0973
GGACAUCCUAAAAUCAGAATT against ZNF7	inactive: 0
CGCAGAAGUUAACACUUCATT against CD200R1	inactive: 0.0679
GAGUCAGUGUCGAUAUGAATT against THEM2	inactive: 0.449
GUAACUUCCUAUUCACCAATT against EPAS1	inactive: -0.166
CAUCUUUGAUAUCACUAAUTT against CD80	inactive: 0.553

Sequence	median seed-adjusted z-score
GCUGUUUAAGAAGAACCUATT against VPS11	inactive: 0
GUAGUACUCGUAUCACGAATT against ACOT12	inactive: 0.0741
GACUAAAGAUUCAGAUAAATT against TRIM13	inactive: 0.712
ACUUUGCUCCUACUAUUCATT against NEGR1	inactive: 0.194
GGCAUUACCUAUCACUUUUTT against KCNG3	inactive: 0.0832
GGAAUUCCGUUGACUUGUUTT against MPST	inactive: -0.181
GCACAAUCGGACUUAUUCATT against UCHL1	inactive: -0.421
CAGUCAAGGUGAAGUACUATT against TRIM32	inactive: 0.109
CCGUCCUAGUGCACAUUGATT against H6PD	inactive: 0.069
GACCUAUGCUCAGCAACUATT against ZNF695	inactive: -0.358
GGAGGAAGUUUUGCAGGAATT against GNL3L	inactive: 0.568
GAGAGGAUUUUAUUGAACATT against HSPA12A	inactive: 0.0319
ACACGAAAGUCUGCAAAUATT against KLK11	inactive: 0.0411
GCUGCUUCAUGUACGGAAATT against AGBL5	inactive: 0.0343
CAGCAAGCAUUAUAUCUCATT against KCNK16	inactive: 0
AGAAGUCACUCAAUUGUUUTT against CRH	inactive: 0.64
CCACUAUGGUGACCACGUUTT against S100A5	inactive: 0.418
GGAGGACUCAUGUUCAACATT against DIMT1L	inactive: 0.0156
GGCUUCACAGGAACCUAUUTT against NOTCH3	inactive: 0.395
AAAUCAAGGCGGCUUACUATT against DNAJC30	inactive: 0.329
GGUAAAGAAUUCUCCGGAATT against FUS	inactive: 0.92
GAGCAUGGGUGGUAAAGUATT against ST13	inactive: 0.286

Sequence	median seed-adjusted z-score
CAAUAUGAACACUUCCGAATT against MED31	inactive: -0.267
CACUUCCUGCUGAACCUGATT against ADAMTS10	inactive: 0.856
GUCUCCAGCUUAAACAGGATT against SIRT6	inactive: 0.0126
GGAUAAGACAGUAACCCGATT against LRIG2	inactive: 0.386
CGUUGCAAUGGAUAAGUUUTT against B4GALT1	inactive: 0
GCAUGUACACCAUCCCGCUTT against RNPEPL1	inactive: 0
CAACCAGAGCAGUUCGACUTT against ATAD3A	inactive: -0.283
CCUGUGCAAUCAUAGGAGATT against ARL4A	inactive: -0.572
UGACCCAGAUUAUCGCCGATT against POLR2I	active: -3.27
GAACUGCGAUUGAAUAACATT against SLIT1	inactive: 0.12
CCCAAAUGAUAAUUCCAAATT against SLC45A3	inactive: -0.0257
GCUGGUUUAUCCUCACAGATT against PSCD2	inactive: -0.126
GAAUGUCUCUAAGGACGUATT against MYO18B	inactive: -0.597
UACCUGUGGUCAUUCCUUATT against HHATL	inactive: 0.497
GGAAAGCGGCAAAAGUUAATT against RNF39	inactive: 0.297
GAAACUGUUUGACAGCAUUTT against GNAI3	inactive: 0.0656
CUAUCAUGCUAAAGCGUAUTT against RBM6	inactive: 0.193
GGAUCGACCCAACCUAUGUTT against XYLT2	inactive: 0.148
GCUUGAGAACUACCAGGUUTT against TAL2	inactive: -0.395
GGAUAACCUCAAUAACUAUTT against GRIN2A	inactive: 0.025
GAUCCAACCAUUGAAGAUUTT against RRAS2	inactive: -0.0229
UCCUCUUCGGACUCAAUAATT against DRD2	inactive: -0.0273

Sequence	median seed-adjusted z-score
GGACAAGUGUAACCUUUAATT against SCUBE2	inactive: 0.452
CAUCAACCGUAAUAGCAUUTT against FBXL6	inactive: -0.182
GCCUAUCGAUUUGGUGAUATT against MEIS1	inactive: 0
ACUUGAACUUAAUACAGCATT against ARID1B	inactive: 0.108
GGAUAAUGGAGAACUCAGATT against NSFL1C	inactive: -0.0899
AAGAAGGUCUGGUACGACATT against ZMAT5	inactive: 0.292
GCAGUGACAUGUACGAGAATT against SIVA1	inactive: 0.0451
GAACAUGGACAUUAUCGUUTT against THNSL2	inactive: 0
CAGAUUACGUGGAACAGGATT against EFTUD2	active: -1.25
CCACCUUCAAAUUUGAAGATT against ATP5J	inactive: 0.242
GCAUUUCCACUAAGUUUGATT against BCS1L	inactive: 0.167
CCACCUAAAAGGCAACCAATT against GALNT1	inactive: -0.164
GGAAGGCUCCAAACGGAAATT against PBRM1	inactive: -0.118
GAACGAGUGAAGAAGUUAATT against SYNCRIP	inactive: -0.192
CCAUCAAGCAAUACAAUUATT against CDKN3	inactive: -0.03
GAAAACCGAUGAACUUAGATT against DEK	inactive: 0.374
GGAGGACUGUAUCGCCUAUTT against MINK1	inactive: -0.522
GCACCUUCAGAAUCAGAGATT against SMYD3	inactive: 0.1
GGACCCAGCAUAAUGAUUATT against CEBPE	inactive: -0.259
GGAUCAAGCUGCCCAUCUATT against AQP3	inactive: -0.0863
